Test results from the supplement of paper PMC7646827.
Single values are uncertain, as repeats are few or missing.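 All cells are established human bladder cancer lines, one of them grown from a patient-derived xenograft. Viability was read by a luminescent ATP assay as percent inhibition versus vehicle over a seven-point dilution series; the paper calls scores above 59 very active, 30–59 active, 21–29 semi-active, 9–20 low active and below 9 inactive.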

How the values were obtained:
Assay in all cases: drug sensitivity score DSS3 (score 0-100); higher = more sensitive; extreme values may be limits of the assay
Details in all cases: culture: 3D, ultra-low attachment; treatment time: 5 days
[1] = system: UM-UC-1
[2] = system: UM-UC-18
[3] = system: TCCSUP
[4] = system: UM-UC-3
[5] = system: BC8149
[6] = system: UM-UC-15
[7] = system: UM-UC-14
[8] = system: UM-UC-17
[9] = system: 5637
[10] = system: UM-UC-6
[11] = system: J82
[12] = system: UM-UC-12
[13] = system: SW780
[14] = system: UM-UC-9
[15] = system: SCaBER
[16] = system: UM-UC-5
[17] = system: T-24

Structure (SMILES) | drug sensitivity score DSS3 [1] | drug sensitivity score DSS3 [2] | drug sensitivity score DSS3 [3] | drug sensitivity score DSS3 [4] | drug sensitivity score DSS3 [5] | drug sensitivity score DSS3 [6] | drug sensitivity score DSS3 [7] | drug sensitivity score DSS3 [8] | drug sensitivity score DSS3 [9] | drug sensitivity score DSS3 [10] | drug sensitivity score DSS3 [11] | drug sensitivity score DSS3 [12] | drug sensitivity score DSS3 [13] | drug sensitivity score DSS3 [14] | drug sensitivity score DSS3 [15] | drug sensitivity score DSS3 [16] | drug sensitivity score DSS3 [17]
Cc1cc(Nc2cc(N3CCN(C)CC3)nc(Sc3ccc(NC(=O)C4CC4)cc3)n2)n[nH]1 [VX-680 (Tozasertib, MK-0457)] (max dose 10000 nM) | 16.5 | 0.589 | 28.1 | 0.569 | 0.966 | 0.734 | 6.84 | 0 | 17.4 | 10.6 | 0 | 6.25 | 0 | 0 | 0 | 0 | 0
CN1CCN(CCOc2cc(OC3CCOCC3)c3c(Nc4c(Cl)ccc5c4OCO5)ncnc3c2)CC1 [AZD0530, Saracatinib (AZD0530)] (max dose 10000 nM) | 1.74 | 2.7 | 11.2 | 3.36 | 0.593 | 0.24 | 2.2 | 0 | 3.76 | 2.58 | 0 | 20.7 | 1.92 | 0 | 6.15 | 0 | 16.2
Cc1cc2ncc(C(=O)NCC(C)(C)NCC(=O)N3CCC[C@H]3C#N)cn2n1 [Anagliptin] (max dose 10000 nM) | 0 | 0 | 0 | 0 | 0 | 0 | 0 | 0 | 0 | 0 | 0 | 0 | 0 | 0 | 0 | 0 | 0
Cc1ccc(-c2c(-c3nn(C)c4ncnc(N5CC[C@H](N6CCCCC6)C5)c34)cnn2C)cc1 (max dose 10000 nM) | 1.13 | 3.44 | 2.83 | 0.592 | 2.24 | 24 | 0.963 | 0.649 | 1.61 | 0.32 | 0 | 0.873 | 0 | 0 | 0 | 0 | 0.182
C=CC(=O)Nc1cc(Nc2nccc(-n3cc(CN(C)C)c(-c4ccccc4)n3)n2)c(OC)cc1N1CCOCC1 (max dose 10000 nM) | 0 | 0.224 | 0.217 | 3.41 | 0 | 0 | 0.0926 | 0 | 0.0219 | 0 | 0 | 0.968 | 0 | 0 | 1.02 | 0 | 0
C[C@@H](C(=O)Nc1ccc(Cl)cc1)C1CCC(c2ccnc3ccc(F)cc23)CC1 (some centres not stated) (max dose 10000 nM) | 0 | 0 | 0 | 0 | 0 | 0 | 0 | 0.000602 | 0 | 0 | 0 | 0 | 0 | 0 | 0 | 0.0365 | 0
CC(C)(O)CNc1ncc(-c2ccnc(Nc3ccncc3)n2)c(CC2CC2)n1 [VPS34 inhibitor 1 (Compound 19, PIK-III analogue)] (max dose 10000 nM) | 2.26 | 0 | 3.98 | 0.1 | 1.04 | 1.82 | 0 | 0 | 0.0408 | 0.27 | 0 | 0 | 0 | 0 | 0 | 0 | 0
COc1c(C)c2c(c(O)c1C/C=C(\C)CCC(=O)OCCN1CCOCC1)C(=O)OC2 [Mycophenolate Mofetil] (max dose 10000 nM) | 2.05 | 5.44 | 15.5 | 7.23 | 6.22 | 41.8 | 7.84 | 7.08 | 4.83 | 3.13 | 0 | 2.47 | 0.45 | 2.62 | 0 | 0.00668 | 0
CN1CCN(C(=O)c2cc3cc(Cl)ccc3[nH]2)CC1 (max dose 10000 nM) | 0 | 0 | 0 | 0 | 0 | 0 | 0 | 0 | 0 | 0 | 0 | 0 | 0 | 0 | 0 | 0 | 0
Cc1cccc(CC(=O)N2CCc3c2ccc(-c2cn(C)c4ncnc(N)c24)c3F)n1 (max dose 10000 nM) | 0.4 | 0 | 0 | 0 | 0 | 0 | 0 | 0 | 0 | 0 | 0 | 0 | 0 | 0.268 | 0 | 0 | 0
O=c1c(O)c(-c2ccc(O)c(O)c2)oc2cc(O)cc(O)c12 [Quercetin] (max dose 10000 nM) | 0 | 0 | 0 | 0 | 0 | 0 | 0 | 0 | 0 | 0 | 0 | 0 | 0 | 0 | 0.788 | 0 | 0
